# Measured values published in the supplement of paper PMC3334620.
# The full ranking holds about 33,000 sequences; the median of “E-score (-0.5 to 0.5)” is about -0.016, and the highest 2% start at about 0.3. This is one part of the list.
# Biological target: T1, Yer184c (UniProt P39961)
# T1 sequence: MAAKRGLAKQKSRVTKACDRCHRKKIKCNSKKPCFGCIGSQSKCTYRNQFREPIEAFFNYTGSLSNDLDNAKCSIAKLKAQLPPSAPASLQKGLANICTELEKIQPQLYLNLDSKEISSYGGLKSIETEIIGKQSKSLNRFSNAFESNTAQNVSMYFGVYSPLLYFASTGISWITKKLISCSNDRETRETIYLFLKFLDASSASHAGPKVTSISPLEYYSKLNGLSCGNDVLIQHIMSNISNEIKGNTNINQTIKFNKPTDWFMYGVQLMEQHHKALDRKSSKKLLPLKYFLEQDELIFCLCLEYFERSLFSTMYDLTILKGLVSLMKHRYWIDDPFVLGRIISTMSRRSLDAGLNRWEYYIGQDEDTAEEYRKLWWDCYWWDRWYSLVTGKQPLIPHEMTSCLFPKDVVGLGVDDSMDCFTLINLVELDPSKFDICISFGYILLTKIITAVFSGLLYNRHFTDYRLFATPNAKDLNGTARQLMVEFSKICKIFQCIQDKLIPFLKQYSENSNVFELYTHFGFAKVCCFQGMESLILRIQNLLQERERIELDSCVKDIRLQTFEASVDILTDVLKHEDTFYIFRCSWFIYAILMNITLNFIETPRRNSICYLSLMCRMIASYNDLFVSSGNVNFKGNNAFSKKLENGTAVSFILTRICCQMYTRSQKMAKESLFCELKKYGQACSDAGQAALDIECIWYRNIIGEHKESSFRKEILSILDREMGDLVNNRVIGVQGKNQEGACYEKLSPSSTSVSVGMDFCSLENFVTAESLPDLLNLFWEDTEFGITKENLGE
# Experiment: PBM E-score (8-mer binding enrichment) (E-score (-0.5 to 0.5)); higher = stronger / more preferred TF binding
# Conditions: protein concentration: 100 nM; construct: GST-full length
# Procedure, shortened: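 Detection of bound protein used fluorescent anti-GST, with scans normalised by masliner. The proteins were GST-tagged yeast transcription factors applied at about 100-200 nM to universal all-10-mer Agilent arrays made double-stranded by primer extension. Each ungapped eight-base word, pooled with its reverse complement, was scored with an E-score from the Universal PBM Analysis Suite.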
row,Sequence,PBM E-score
1,AGGTAGAC,-0.0667
2,CCAACCCC,-0.149
3,ACCATTAC,0.0181
4,CAACGTGG,-0.0647
5,TGCACCCA,-0.0602
6,CGAGGCCC,-0.108
7,GGACAACC,0.0118
8,CCAACGTA,-0.105
9,ATCCATGC,0.0158
10,CCCTGAGA,-0.304
11,ACTGTGCC,0.0218
12,GGTTTAGA,0.0607
13,AAGATCCG,0.091
14,CTAACGAC,-0.196
15,CGTAAGAC,-0.152
16,TAGTATAA,0.226
17,GCGTCCCA,-0.117
18,AAAGCCCT,-0.236
19,ATCTGGGG,-0.344
20,TGAAACAA,0.157
21,TACGCAGA,0.0761
22,AACCTCCG,0.129
23,ATCACCTC,-0.0189
24,GTAGGGGA,-0.212
25,GAATAAAC,0.0606

row,Sequence,PBM E-score
1,ATGCCAAT,-0.0596
2,AGCGTCCC,-0.144
3,ACGCGACT,-0.246
4,GCGTGGTA,0.0701
5,ACGAGGAA,0.0257
6,ACTCCTGC,-0.00504
7,AAGCAGAG,-0.0501
8,ATCTCGGG,0.219
9,GCAGACCA,-0.0675
10,ACGCGACA,-0.0168
11,GCACTTTA,0.046
12,CATCTTAG,0.011
13,GTTTACCA,0.0331
14,ATCGATAG,-0.0102
15,ATGCGACC,0.142
16,CGACTACC,-0.248
17,GCATCCAA,-0.165
18,CTTGTTAC,0.0352
19,ATGGTTAA,0.0016
20,AAGGCCTT,-0.281
21,CCGTCGCA,-0.00654
22,CAATACGG,-0.104
23,CATTCGGG,0.141
24,AGCAAGTG,-0.246
25,GCGCGTCA,-0.138

row,Sequence,PBM E-score
1,CCGTCTCA,0.0903
2,ACTAGCTC,-0.00649
3,CATGAAGG,-0.0242
4,AATTTATA,0.24
5,ATTGGAGG,-0.178
6,CAGTGCGA,-0.2
7,CCGAAGCC,0.143
8,AGCTGATG,0.0448
9,CCGGACTC,0.341
10,CAGTACAG,0.017
11,AATCCCCT,-0.283
12,AATTAGTC,0.145
13,GCCCAACA,-0.205
14,CAGGCTTC,0.0429
15,ATCCTAGA,-0.0128
16,AGGGTACG,-0.107
17,ACAGTAGA,0.0645
18,CAGTAGGG,-0.381
19,ATAGTCGG,-0.039
20,GGCGCGGA,0.109
21,ACGTCCCC,-0.26
22,AGTGTGAC,-0.238
23,CGGCTCAC,0.183
24,CCGGGGAA,0.267
25,CGCGAGCC,-0.032

row,Sequence,PBM E-score
1,AATGGAAA,-0.00326
2,GCAGAGAA,0.136
3,GCCGGTCC,0.148
4,GATTATAA,0.204
5,ACTGGTCA,-0.0508
6,ATTGAGAG,0.122
7,AGCGGTAC,-0.192
8,AAAGGATA,0.195
9,AAGGGCAT,-0.236
10,AGTCCGAT,0.19
11,AATCACAA,-0.0485
12,GTCTCAAC,-0.0423
13,GTGATGTA,0.0285
14,GGGAGACC,-0.229
15,AACCCGCC,-0.0413
16,CTCACGCC,-0.0549
17,GTACAGAA,0.21
18,CACACTGA,-0.244
19,ATATAGGG,-0.141
20,GTCGCCCA,-0.197
21,CTACTACC,-0.031
22,TGCCTTAA,-0.129
23,ACACGTAA,0.0614
24,GGTTAAAA,0.0951
25,TTCTCCAA,0.0459

# Given with tabs: part of the list above.
row	Sequence	PBM E-score
1	AGGTAGAC	-0.0667
9	ATCCATGC	0.0158
11	ACTGTGCC	0.0218
12	GGTTTAGA	0.0607
14	CTAACGAC	-0.196
15	CGTAAGAC	-0.152
17	GCGTCCCA	-0.117
24	GTAGGGGA	-0.212
3	ACGCGACT	-0.246
6	ACTCCTGC	-0.00504
8	ATCTCGGG	0.219
10	ACGCGACA	-0.0168
16	CGACTACC	-0.248
19	ATGGTTAA	0.0016
22	CAATACGG	-0.104
23	CATTCGGG	0.141
24	AGCAAGTG	-0.246
25	GCGCGTCA	-0.138
1	CCGTCTCA	0.0903
3	CATGAAGG	-0.0242
5	ATTGGAGG	-0.178
6	CAGTGCGA	-0.2
7	CCGAAGCC	0.143
8	AGCTGATG	0.0448
12	AATTAGTC	0.145
13	GCCCAACA	-0.205
17	ACAGTAGA	0.0645
18	CAGTAGGG	-0.381
19	ATAGTCGG	-0.039
20	GGCGCGGA	0.109
21	ACGTCCCC	-0.26
22	AGTGTGAC	-0.238
4	GATTATAA	0.204
5	ACTGGTCA	-0.0508
8	AAAGGATA	0.195
9	AAGGGCAT	-0.236
11	AATCACAA	-0.0485
14	GGGAGACC	-0.229
17	GTACAGAA	0.21
21	CTACTACC	-0.031
22	TGCCTTAA	-0.129
23	ACACGTAA	0.0614

# Further results follow:

row,Sequence,PBM E-score
1,GCAAGGCC,0.0339
2,CGCTAACG,0.21
3,CCTAAACA,-0.0297
4,ATATCCAA,0.132
5,CCGAGCGC,0.361
6,AATTGTTC,0.269
7,TAGTCTAA,-0.101
8,CGTGGGTA,-0.0914
9,CTTGTCAC,-0.0615
10,CTGAGTCC,-0.0833
11,AGATGTGG,-0.116
12,AGCATGAC,-0.156
13,AATCGATC,-0.025
14,GCAAGTAC,0.0411
15,GAAAGGGC,-0.192
16,AAGACAAG,0.143
17,GGAGGGGA,-0.0719
18,GCCAACAA,-0.0403
19,CCAGCAAG,-0.126
20,CCTATGCC,-0.294
21,CACGGCCA,0.131
22,TGCGGTAA,0.169
23,GAGGTAGC,-0.25
24,ACAAAACG,0.143
25,AATAGTGT,0.267

row,Sequence,PBM E-score
1,CGGTCACA,0.0721
2,ACCGGTCC,0.165
3,AGCAGACC,0.123
4,AAGTCGTG,-0.0777
5,GACTAACA,0.101
6,CCTCTGTA,-0.107
7,TACCCCCA,-0.355
8,CGTGCTGA,0.0635
9,AGCCTTAC,-0.221
10,AACCTAGG,0.0109
11,GCCGGGAA,0.331
12,AAACGACG,0.0813
13,CAGCATCC,-0.13
14,CCGAGGGC,0.26
15,GATCCTGA,1e-05
16,CCGACGAG,0.133
17,CGGGGCAG,-0.0305
18,CTTGAATC,0.0357
19,CTGGAGGA,-0.28
20,CAAGATCC,0.116
21,GAGAACTA,0.0553
22,CACCCAAG,-0.119
23,TCATAGCA,-0.0252
24,AAGCAACG,0.0553
25,GAACCGCA,0.235

row,Sequence,PBM E-score
1,AACCTAGA,0.0403
2,ATGACTGA,-0.0291
3,CTAGTGGA,-0.246
4,AATGCTAC,0.0624
5,CGCATTCA,0.205
6,GTCTCTTA,0.126
7,AGAGGGCA,-0.208
8,GCGCCCAC,-0.0818
9,ACGAAACT,0.0515
10,ATTCGTCC,0.289
11,ATATACGA,-0.0964
12,CGCAGCGC,0.0137
13,ACATGTCT,-0.137
14,ATAGCGAC,-0.174
15,AAAGTGAG,0.0693
16,ATCAACCA,-0.0435
17,CCGAGCCG,0.352
18,CCGGTTAC,0.236
19,ATGATCAA,0.154
20,GGTCCTAC,-0.166
21,TATTGAAA,0.143
22,GCTGATCA,0.0248
